In publication doi:10.1101/2023.04.17.537183:
No constants are given. Whether binding was seen depends on the method and setting. In cells and extracts the contact can be indirect. Some results given as binding are weak or reduced against the parent protein; the word gives no strength.

Target: T1, DmMIC60 (Mitofilin/Dmel_CG6455) (D. melanogaster (endogenous in flies)) (UniProt P91928)
T1 sequence: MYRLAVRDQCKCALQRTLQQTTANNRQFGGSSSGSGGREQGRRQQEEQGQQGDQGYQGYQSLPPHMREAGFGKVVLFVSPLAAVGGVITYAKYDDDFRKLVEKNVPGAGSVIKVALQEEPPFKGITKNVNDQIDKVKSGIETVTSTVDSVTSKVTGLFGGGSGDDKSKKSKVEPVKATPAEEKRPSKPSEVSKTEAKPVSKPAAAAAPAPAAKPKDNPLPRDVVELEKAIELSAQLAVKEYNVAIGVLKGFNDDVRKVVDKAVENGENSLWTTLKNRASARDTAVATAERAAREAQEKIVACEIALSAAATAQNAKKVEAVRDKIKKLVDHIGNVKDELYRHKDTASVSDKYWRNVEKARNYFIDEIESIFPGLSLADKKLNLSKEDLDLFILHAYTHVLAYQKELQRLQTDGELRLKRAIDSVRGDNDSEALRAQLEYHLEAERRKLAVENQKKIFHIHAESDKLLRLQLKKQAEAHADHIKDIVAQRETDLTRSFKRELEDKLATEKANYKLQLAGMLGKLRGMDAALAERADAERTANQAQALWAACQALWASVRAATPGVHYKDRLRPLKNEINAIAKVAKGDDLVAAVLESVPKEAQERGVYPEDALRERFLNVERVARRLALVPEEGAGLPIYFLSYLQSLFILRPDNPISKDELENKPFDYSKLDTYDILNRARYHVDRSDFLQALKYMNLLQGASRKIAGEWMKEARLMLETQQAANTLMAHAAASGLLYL
Assay: co-IP

B1: DmMIC13 (QIL1/Dmel_CG760) (protein, UniProt Q9VVH3 1-122)
chain: MVLGFLVRGGLVAATVYYTQKVGIWGDSDQTDKLYNDIKSELRPHVQKLEKQLPFEVPQLPKTGEMRFLAKHYYNEGVKNTFRFIHMLPCYAGRGLKKVKDTFQDFAQSPAIAGGAESSPPK
  binding: binds
